Some of the results follow. Shown are side measurements of this screen, not its main read-out; they come without a call. Compounds called inactive in the main read-out are mostly missing here. The note in brackets gives the kind of curve behind each potency; many fits are weak.

The experiment can be described thus: qHTS Assay for Lipid Storage Modulators in Drosophila S3 Cells.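 As to cell number change: cells counted by Cell Tracker Red CMTPX staining in the red channel.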 To be noted: BODIPY lipid droplet fluorescence, 18-24 h; for cell number change: measured here: cell count max response, cells fed with added oleic acid. In outline:
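Drosophila S3 cells loaded with oleic acid (400 uM, as added) and compounds at several concentrations; lipid droplets imaged by 488-nm laser-scanning cytometry, 500–530 nm intensity and object ratio to cell channel. Percent activity normalized to 20 uM Triacsin C.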
On the technique in general: In qHTS, concentration-response curves come from the screen itself.

Setting [1] is: measured here: lipid fluorescence (Fed channel) AC50, cells fed with added oleic acid.
The mark [2] stands for this setting: measured here: cell number channel AC50, cells fed with added oleic acid.

As a reminder, the AC50 is the midpoint of the concentration-response curve, whichever way the signal moves. Low readings indicate greater potency, high ones weaker potency. Consider `O=C(COc1cc(O)c2c(=O)cc(-c3ccccc3)oc2c1)c1cccc([N+](=O)[O-])c1`, for which the cell number change was 9.68%. Also, the half-maximal activity concentration (AC50) under setting [1] is 6.51 µM [falling, single point].
`Cc1ccccc1NC(=S)N/N=C/c1ccc(O)cc1O`: the cell number change is 14.3%. Besides, under setting [2], the AC50 was 3.26 µM [rising, single point]. Also, the concentration at half-maximal activity (AC50) under setting [1] is 5.8 µM [rising, full curve].
For the compound `Cc1ccc2nc(NC(=O)CSCc3ccccc3)sc2c1`, the cell number change is 7.65%. Moreover, under setting [1], the AC50 is 2.06 µM [rising, partial curve].
As for `CCc1ccc(N(C(=O)c2csnn2)C(C(=O)NC2CCCCC2)c2cccnc2)cc1` (stereo not given), the cell number change worked out at 2.92%.
As to `CCOCCn1c(SCc2ccc(F)cc2)nc2c1c(=O)[nH]c(=O)n2C`, under setting [2], the AC50 is 2.59 µM [rising, single point].
Consider `Cc1noc(C)c1C(=O)Nc1cccc2ncccc12`, for which the cell number change amounted to 17.9%.
Turning to `CCOC(=O)C(NC(=O)c1cccc(Cl)c1)(OCc1ccc(F)cc1)C(F)(F)F` (stereo not given), the cell number change was -23.2%. Besides, the concentration at half-maximal activity (AC50) under setting [1] is 3.66 µM [rising, partial curve].
Consider `Nn1c(SCC(=O)Nc2ccc(F)cc2F)nnc1C1CCCCC1`, for which the cell number change worked out at 43.2%. Moreover, under setting [2], the half-maximal activity concentration (AC50) was 14.6 µM [rising, partial curve, poor fit].
In the case of `Cc1ccc(-n2c(SCC(=O)N3CCOCC3)nc(O)cc2=O)cc1`, the cell number change was 15.6%. The AC50 under setting [1] is 6.51 µM [rising, single point].
As for `O=C1CCN(Cc2ccc([N+](=O)[O-])cc2)CCN1CCO`, the cell number change is 7.77%.
As for `COc1cccc(NC(=O)c2nnn(CC(=O)Nc3cc(C)cc(C)c3)c2N)c1`, the cell number change was 43.2%. The AC50 under setting [2] was 8.2 µM [rising, single point].
Consider `O=C(/C=C/c1ccc(OCCCF)cc1)NCc1cccc(Cl)c1`, for which the cell number change stood at 23.5%. Besides, the AC50 under setting [1] was 0.00411 µM [rising, full curve, poor fit].
Take `O=C1CCCC/C1=C/NCc1ccccc1`: the cell number change was found to be 15.7%.
Take `COc1ccc2c(CC(=O)NNC(=O)c3cccs3)coc2c1`: the cell number change was 1.16%. Moreover, under setting [1], the concentration at half-maximal activity (AC50) is 18.4 µM [falling, single point].
As to `Cc1ccc2nc(COc3ccc(N(C)S(=O)(=O)c4ccccc4)cc3)cc(=O)n2c1`, the cell number change was -60.2%. Also, under setting [2], the AC50 was 20.6 µM [falling, single point].
For `O=C(CN1CCC(N2CCCCC2)CC1)N1CCOCC1`, the cell number change is -20.9%. Under setting [1], the half-maximal activity concentration (AC50) is 0.366 µM [falling, full curve, poor fit].
Regarding `CCO/C(=C/c1sc2ccc(OC)cc2[n+]1CCCS(=O)(=O)[O-])CC`, under setting [1], the AC50 is 29.1 µM [falling, single point].
On to `COc1ccc(C(=O)/C=C/Nc2c(C)n(C)n(-c3ccccc3)c2=O)cc1OC`, for which the cell number change is -5.49%. For the same compound, the AC50 under setting [1] is 0.651 µM [falling, single point].
`CC(C)(C)N1C(=O)[C@H]2[C@@H](c3ccc(Br)cc3)N3C(=O)N(c4cccc(Br)c4)C(=O)[C@@]3(Cc3ccccc3)[C@H]2C1=O`: the cell number change worked out at 50.3%. Also, under setting [2], the AC50 is 29.1 µM [rising, single point]. The AC50 under setting [1] was 29.1 µM [rising, single point].
Take `CCN(CCCn1c(=S)[nH]c2ncccc2c1=O)c1ccccc1`: the cell number change was found to be 172%. For the same compound, under setting [2], the half-maximal activity concentration (AC50) was 29.1 µM [rising, single point]. Besides, the AC50 under setting [1] is 23.1 µM [rising, partial curve].
For the compound `CSc1cccc(NC(=O)Nc2ccc(Cl)cc2)c1`, the cell number change was -31.2%. Under setting [1], the half-maximal activity concentration (AC50) was 0.731 µM [rising, full curve, poor fit].
For the compound `N#Cc1ccc(COC(=O)C2CC(=O)N(CCc3ccccc3)C2)cc1` (stereo not given), the cell number change is 10.4%.
On to `O=C(Cc1ccccc1)Nc1ccc(NC(=O)C2CC2)nc1`, for which the cell number change was 28.1%. Also, the half-maximal activity concentration (AC50) under setting [1] is 11.6 µM [rising, partial curve, poor fit].
In the case of `CSc1nc2ccc(NC(=O)C3CCCO3)cc2s1` (stereo not given), the cell number change stood at 7.29%. Besides, under setting [1], the concentration at half-maximal activity (AC50) is 6.51 µM [rising, single point].
As to `OCC1(Cc2cccc(Cl)c2)CCCN(Cc2ccc(F)c(F)c2)C1` (stereo not given), the cell number change is -27.5%.
Consider `Cc1ccc(NC(=O)c2nc(S(=O)(=O)Cc3ccccc3C)ncc2Cl)cc1C`, for which the cell number change is -21.5%.
Consider `CCCn1nnnc1SCC(=O)N1C(C)CCCC1C` (stereo not given), for which the cell number change is 10.3%.
On to `Cc1ccc(C)c(N2CCN(C(c3ccc(N(C)C)cc3)c3nnnn3C(C)(C)C)CC2)c1` (stereo not given), for which the cell number change was 1.55%. The half-maximal activity concentration (AC50) under setting [1] is 6.51 µM [falling, single point].
Turning to `CC(=O)c1ccccc1NC(=O)COC(=O)c1ccc2c(c1)nc(C)n2-c1ccccc1`, the cell number change was found to be 4.1%. The concentration at half-maximal activity (AC50) under setting [1] was 13 µM [rising, partial curve].
On to `COc1ccc(N=c2cc(-c3ccc(O)cc3)oc3ccccc23)cc1`, for which the cell number change turned out to be 15.6%. Moreover, the AC50 under setting [1] is 0.411 µM [rising, full curve, poor fit].
Take `O=C(O)CC1S/C(=N\N=C2\C(=O)Nc3ccccc32)N(c2ccc(O)cc2)C1=O` (stereo not given): the cell number change is -2.11%. Further, the AC50 under setting [1] is 6.51 µM [rising, single point].
For the compound `Cc1ccc(S(=O)(=O)N(CC(=O)Nc2cccc(C)c2C)C(=O)N2CCN(C)CC2)cc1`, the cell number change is -3.23%. Moreover, the AC50 under setting [1] is 0.58 µM [falling, full curve, poor fit].
Turning to `O=C(O)c1ccc(/C=N/Nc2cccc(C(F)(F)F)c2)cc1`, the cell number change was determined as 39.9%. For the same compound, under setting [1], the half-maximal activity concentration (AC50) is 2.91 µM [rising, full curve].
As to `COCCCN(C(=O)C1CCC1)c1c(N)n(Cc2ccccc2)c(=O)[nH]c1=O`, the cell number change was 6.26%. Moreover, the AC50 under setting [1] was 0.13 µM [rising, full curve, poor fit].
On to `CC(C)CC1Nc2ncnc(N3CCN(c4ccccc4)CC3)c2N(Cc2ccc(Cl)cc2)C1=O` (stereo not given), for which the cell number change stood at 26.3%. Further, under setting [1], the AC50 was 29.1 µM [rising, partial curve, poor fit].
Consider `COc1cccc(/C=N/Nc2ccc(S(=O)(=O)O)cc2)c1O`, for which the cell number change came to 86.6%.
Take `CN1CCN(NC(=O)Nc2ccc(Br)cc2Cl)CC1`: the AC50 under setting [1] is 0.58 µM [falling, single point].
For `OC(COc1ccc(Cl)cc1)CN1C2=NCCCN2c2ccccc21` (stereo not given), the cell number change came out at 1.65%. Further, under setting [2], the AC50 was 3.66 µM [falling, single point].
For `CCc1ccc(N2CC(C(=O)Nc3ccc(S(=O)(=O)NCC4CCCO4)cc3)CC2=O)cc1` (stereo not given), the cell number change is -3.85%.
On to `S=C(NCCc1ccccc1)Nc1cccc2cnccc12`, for which the cell number change was -45.7%. Moreover, under setting [2], the AC50 was 29.1 µM [falling, single point]. Moreover, the concentration at half-maximal activity (AC50) under setting [1] is 29.1 µM [falling, single point].
Regarding `O=C(CC(c1ccccc1)c1ccccc1)Nc1ccc(C(=O)O)cc1`, the cell number change came out at 14.4%.
As for `O=C(NCCN1CCN(Cc2ccccc2)CC1)Nc1cc(Cl)cc(Cl)c1`, the cell number change was -42.6%. Further, the concentration at half-maximal activity (AC50) under setting [2] is 29.1 µM [falling, single point]. Under setting [1], the AC50 was 0.103 µM [falling, full curve, poor fit].

The values are drawn from PubChem BioAssay AID2685 (National Center for Advancing Translational Sciences (NCATS), 2010).
